Experimental data published in PMC7819943, “Rice protein-binding microarrays: a tool to detect cis-acting elements near promoter regions in rice”.
Some of the results follow.

By UniProt entry, the sequences of proteins in these tests, tags left out.
UniProt Q0JBA9, entry or part of it: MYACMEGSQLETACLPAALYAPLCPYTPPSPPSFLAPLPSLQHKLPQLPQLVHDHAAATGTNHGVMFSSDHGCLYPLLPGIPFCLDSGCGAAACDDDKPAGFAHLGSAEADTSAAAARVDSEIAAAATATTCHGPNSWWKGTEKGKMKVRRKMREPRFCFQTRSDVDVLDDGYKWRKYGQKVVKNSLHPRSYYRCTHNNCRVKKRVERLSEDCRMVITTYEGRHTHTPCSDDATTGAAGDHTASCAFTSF

Each sequence was assayed against OsWRKY34 (Oryza sativa, UniProt Q0JBA9 1-250) (assay: protein-binding microarray (RPBM); PBS, 2% BSA, 51.3 ng/ul salmon testes DNA, 50 uM zinc acetate, 200 nM TF, 25 C, 1 h; high values mean tight binding). Settings: protein: recombinant; tags: N-terminal polyhistidine and DsRed monomer fusion (pET32a); label: CyDye5-dUTP incorporated in the synthesized complementary strand; 3' TTTTT single-stranded linker to array surface; dsDNA, one strand shown.
In short: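 The binding signal for each feature is its fluorescence intensity in arbitrary units. An Axon 4000B scanner was used to read a custom Agilent array that had been made double-stranded with Cy5-dUTP primer extension, blocked with 2% BSA, incubated at 25 °C for 1 h with 200 nM protein in PBS, 2% BSA, salmon testes DNA and 50 µM zinc acetate, and washed. The protein was an N-terminal polyhistidine–DsRed transcription factor fusion from E. coli BL21-CodonPlus, purified on Ni–NTA.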
“GTGGGTGGAGGAAGCGGATAGGGAGAGGGGTGTGGGGCGGCGGAGTCACCTAGTGCAG” was tested, and the binding signal was 16000 fluorescence intensity (a.u.). With “TCATGTATCAATGTATGCTTATATTTTCAAAACTTTGTAGCGGAGTCACCTAGTGCAG” the binding signal was 8790 fluorescence intensity (a.u.). With “GCTGAGAGAGTGCTCATTTCCAAGTTTTCAACCACCCTCTCGGAGTCACCTAGTGCAG” the binding signal was 9370 fluorescence intensity (a.u.). “GCACGCTTTTCAAACTGATAAACGGTACGTTTCGTTCTATCGGAGTCACCTAGTGCAG” was tested, and the binding signal was 8040 fluorescence intensity (a.u.). “TAGTATATGATTTTCGGGTCTGAGAAGTTAATTCGTACTCCGGAGTCACCTAGTGCAG” was tested, and the binding signal was 9390 fluorescence intensity (a.u.). In the case of “AAGAAATCTCCCGTTTGGTCTCGTTCTCGTTGTCTCCTCCCGGAGTCACCTAGTGCAG”, the binding signal is reported as 9100 fluorescence intensity (a.u.). “CTCCAAATTTCATCTGAGGCTCAGTTTAGTCCTTGATATTCGGAGTCACCTAGTGCAG” was tested, and the binding signal was 8600 fluorescence intensity (a.u.). In the case of “TCTTCTACGTAAACACTCTAACGAGATCTTACACCTGAACCGGAGTCACCTAGTGCAG”, the binding signal is reported as 9210 fluorescence intensity (a.u.). With “TATATATATATATATATATATATACCCACGTGAGGACGTACGGAGTCACCTAGTGCAG” the binding signal was 15800 fluorescence intensity (a.u.). In the case of “CTTTTCTTGTTGTCTTGTTTGCCCTATTTCATATAAATTTCGGAGTCACCTAGTGCAG”, the binding signal is reported as 11100 fluorescence intensity (a.u.). For “TCTTTCACGTTTTCGTCCATAGGATCTTGCATCAAGATTCCGGAGTCACCTAGTGCAG”, the binding signal was 9060 fluorescence intensity (a.u.). In the case of “GCTGGATACATGCTCCAGCTTAGTTAGTTGTTGGGTATTTCGGAGTCACCTAGTGCAG”, the binding signal is reported as 9720 fluorescence intensity (a.u.). For “GGTTTTGAGATGGCATCCAAGCTTAACTTGTTTTTTTTCCCGGAGTCACCTAGTGCAG”, the binding signal was 9320 fluorescence intensity (a.u.). With “TCTGCTATTGTACTTGCTCTAATTGGGTAGTTGGGTTGAACGGAGTCACCTAGTGCAG” the binding signal was 13500 fluorescence intensity (a.u.). “CTAACTATACTATAAACCTGTAATTTTTGCTTTTACTTTTCGGAGTCACCTAGTGCAG” was tested, and the binding signal was 9940 fluorescence intensity (a.u.). With “TTAATTCTGTGCTAATTGTGTTTATTGTTTTGCGTGCAGCCGGAGTCACCTAGTGCAG” the binding signal was 8100 fluorescence intensity (a.u.). With “CTATCTTAATCTCATCATCAATTCCCTCGTGTAAACTCCCCGGAGTCACCTAGTGCAG” the binding signal was 8420 fluorescence intensity (a.u.). In the case of “CGCGCCGTCGACCCACCGCCCGCCGGCCCACCGCCCCGGGCGGAGTCACCTAGTGCAG”, the binding signal is reported as 8280 fluorescence intensity (a.u.). For “CATTCCTGTGTTTTTCCTGTGTTTCACAATCCTCTGTTTTCGGAGTCACCTAGTGCAG”, the binding signal was 11600 fluorescence intensity (a.u.). “TAAAACTAGTCATCCCTTCATTTTATATTATAAGTTGTTTCGGAGTCACCTAGTGCAG” was tested, and the binding signal was 8290 fluorescence intensity (a.u.). With “CCCGTATATCTGGTTTTGCGGTTCGAGGACATTTTTTTTACGGAGTCACCTAGTGCAG” the binding signal was 9100 fluorescence intensity (a.u.). In the case of “AGATATCCGGTATTGTGGTTTAGGGATAGGGATGGCAGTTCGGAGTCACCTAGTGCAG”, the binding signal is reported as 8550 fluorescence intensity (a.u.). For “ATGCCTCCTTATTTGAAGATTTGCTTTTCTTATTGTTCAACGGAGTCACCTAGTGCAG”, the binding signal was 8970 fluorescence intensity (a.u.). For “CTTACTGTTCTTCGTGATCTGTGCACTCCTAATCTCTCCTCGGAGTCACCTAGTGCAG”, the binding signal was 12000 fluorescence intensity (a.u.). “TCGGGGAAGTCTATTTCTTATCACTTCCTTCTTTTCTTTTCGGAGTCACCTAGTGCAG” was tested, and the binding signal was 9440 fluorescence intensity (a.u.). For “TCCCAGGTTCTACCCTTCTAGTCATCGTCGTTTGTGGCCTCGGAGTCACCTAGTGCAG”, the binding signal was 11400 fluorescence intensity (a.u.). “AGTTTCTTTCTTACTTGCTCCTCTACTGCAAACTGTTGTTCGGAGTCACCTAGTGCAG” was tested, and the binding signal was 8140 fluorescence intensity (a.u.). With “TCTCTTCTCCTTCACATTTCTTCTATATATACCCAGTCTCCGGAGTCACCTAGTGCAG” the binding signal was 9040 fluorescence intensity (a.u.). “GTGTCCAACTTTGACTATCCGTTTTATATGAAATTTTTTTCGGAGTCACCTAGTGCAG” was tested, and the binding signal was 11400 fluorescence intensity (a.u.). With “GCCATGTAATTGTTACCCACCCGTGTCCATTTGCAATTGACGGAGTCACCTAGTGCAG” the binding signal was 8240 fluorescence intensity (a.u.). With “AGGTGGTGGTGGAGGTGGAGGTGGCGGTGGAGGTGGAGGGCGGAGTCACCTAGTGCAG” the binding signal was 38600 fluorescence intensity (a.u.). In the case of “TCCCAAGTTATTTTTGATTGCTTCATTCCTACCTCTCAAACGGAGTCACCTAGTGCAG”, the binding signal is reported as 10300 fluorescence intensity (a.u.). “AGGGCTTTTGACTGTGACATGTATACTCTGTAATTACAAGCGGAGTCACCTAGTGCAG” was tested, and the binding signal was 8030 fluorescence intensity (a.u.). With “GATGGGGTTGAGTCGATTCCTGCTGATGGAACTAGGGGAGCGGAGTCACCTAGTGCAG” the binding signal was 8450 fluorescence intensity (a.u.). “GTTCTAAAATATAACAACTTCTTTACCTACATTTCCTTCTCGGAGTCACCTAGTGCAG” was tested, and the binding signal was 8730 fluorescence intensity (a.u.). For “CTCCGTTCTTCCCCGCCGACTCCTTCCCTCCGTTCTCCTTCGGAGTCACCTAGTGCAG”, the binding signal was 8550 fluorescence intensity (a.u.). In the case of “CTCGACGGATTTTCTTTTTATTTTTGGTTTCCAAAGTATGCGGAGTCACCTAGTGCAG”, the binding signal is reported as 8510 fluorescence intensity (a.u.). With “GGCAATCACTCATCGCCTCTCGTCTTCCTGTTGCCCTGTTCGGAGTCACCTAGTGCAG” the binding signal was 8150 fluorescence intensity (a.u.). In the case of “TGCTGTGAATTTACTCCTCTATAATCTATTACTAGTACAACGGAGTCACCTAGTGCAG”, the binding signal is reported as 9870 fluorescence intensity (a.u.). For “GTCCTAGGCATATACTACCCCTTTTCTTCTCCCAATTTCACGGAGTCACCTAGTGCAG”, the binding signal was 8470 fluorescence intensity (a.u.). For “TCCTTGATGTGCTGTGTCCTGGATGGTCGATTCTTCATCCCGGAGTCACCTAGTGCAG”, the binding signal was 9350 fluorescence intensity (a.u.). In the case of “GTGAAGCTCTCTCTCTCCTCTCACGTGACTGGATCCCTCTCGGAGTCACCTAGTGCAG”, the binding signal is reported as 8160 fluorescence intensity (a.u.).
